Results are given in words; binding and its absence hold for the method and conditions named. Binding seen in cells or lysates may run through a third protein. Some binding calls cover weakened binding; strength is not graded here.
Molecular target: HA-tagged NuMA over-expressed in 293T cells (human) (UniProt Q14980)
Experiment: co-IP

Amino acid sequences for entries named in this document (tags omitted).
UniProt Q14980: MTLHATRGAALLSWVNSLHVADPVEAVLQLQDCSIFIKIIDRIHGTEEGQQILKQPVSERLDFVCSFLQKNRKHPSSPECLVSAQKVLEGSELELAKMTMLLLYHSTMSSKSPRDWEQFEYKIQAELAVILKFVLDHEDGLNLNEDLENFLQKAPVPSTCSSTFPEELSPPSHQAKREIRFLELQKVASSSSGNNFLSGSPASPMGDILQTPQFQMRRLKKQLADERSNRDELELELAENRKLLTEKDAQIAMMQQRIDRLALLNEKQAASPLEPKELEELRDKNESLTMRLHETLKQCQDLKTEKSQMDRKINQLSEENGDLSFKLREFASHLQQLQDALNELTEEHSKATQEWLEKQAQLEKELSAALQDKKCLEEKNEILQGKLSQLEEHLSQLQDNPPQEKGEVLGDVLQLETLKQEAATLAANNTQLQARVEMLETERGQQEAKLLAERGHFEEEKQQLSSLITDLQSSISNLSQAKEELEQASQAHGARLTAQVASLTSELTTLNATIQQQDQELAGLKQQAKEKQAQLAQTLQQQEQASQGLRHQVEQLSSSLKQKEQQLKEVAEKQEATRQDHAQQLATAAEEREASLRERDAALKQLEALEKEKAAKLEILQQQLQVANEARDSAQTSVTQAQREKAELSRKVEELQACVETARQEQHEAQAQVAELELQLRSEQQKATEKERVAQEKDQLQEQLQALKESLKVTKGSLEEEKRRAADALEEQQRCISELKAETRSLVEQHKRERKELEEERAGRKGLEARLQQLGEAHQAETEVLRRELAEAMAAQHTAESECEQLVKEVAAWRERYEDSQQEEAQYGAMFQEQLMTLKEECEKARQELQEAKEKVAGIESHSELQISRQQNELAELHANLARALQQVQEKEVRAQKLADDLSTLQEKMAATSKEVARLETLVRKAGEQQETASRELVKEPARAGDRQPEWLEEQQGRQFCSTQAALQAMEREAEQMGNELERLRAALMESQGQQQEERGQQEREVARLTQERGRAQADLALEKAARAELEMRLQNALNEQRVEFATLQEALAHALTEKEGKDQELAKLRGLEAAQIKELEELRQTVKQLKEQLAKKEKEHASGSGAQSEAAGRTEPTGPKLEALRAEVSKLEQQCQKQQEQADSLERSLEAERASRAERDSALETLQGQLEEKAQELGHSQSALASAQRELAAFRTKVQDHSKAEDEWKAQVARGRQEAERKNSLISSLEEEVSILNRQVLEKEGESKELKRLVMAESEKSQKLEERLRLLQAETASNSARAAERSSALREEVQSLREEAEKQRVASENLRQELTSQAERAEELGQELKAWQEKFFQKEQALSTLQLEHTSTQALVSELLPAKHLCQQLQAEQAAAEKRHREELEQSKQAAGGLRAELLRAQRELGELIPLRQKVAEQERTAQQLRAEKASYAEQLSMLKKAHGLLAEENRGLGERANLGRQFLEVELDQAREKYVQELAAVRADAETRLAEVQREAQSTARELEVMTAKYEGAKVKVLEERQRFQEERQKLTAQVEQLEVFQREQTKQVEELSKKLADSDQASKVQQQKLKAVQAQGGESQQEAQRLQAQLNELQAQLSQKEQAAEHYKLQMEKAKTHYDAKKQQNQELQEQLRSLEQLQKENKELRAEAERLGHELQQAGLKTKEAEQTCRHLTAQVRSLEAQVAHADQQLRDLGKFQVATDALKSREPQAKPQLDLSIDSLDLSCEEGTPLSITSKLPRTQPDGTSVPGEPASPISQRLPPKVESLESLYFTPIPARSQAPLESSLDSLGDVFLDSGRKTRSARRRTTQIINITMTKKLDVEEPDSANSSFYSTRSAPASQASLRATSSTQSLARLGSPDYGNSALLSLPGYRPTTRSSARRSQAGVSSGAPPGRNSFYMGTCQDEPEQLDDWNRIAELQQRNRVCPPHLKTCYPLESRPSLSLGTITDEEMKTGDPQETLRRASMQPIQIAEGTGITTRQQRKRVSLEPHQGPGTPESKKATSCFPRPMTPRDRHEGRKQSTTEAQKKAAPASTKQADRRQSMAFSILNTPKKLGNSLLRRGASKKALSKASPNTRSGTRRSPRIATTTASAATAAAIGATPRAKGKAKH
UniProt Q02539: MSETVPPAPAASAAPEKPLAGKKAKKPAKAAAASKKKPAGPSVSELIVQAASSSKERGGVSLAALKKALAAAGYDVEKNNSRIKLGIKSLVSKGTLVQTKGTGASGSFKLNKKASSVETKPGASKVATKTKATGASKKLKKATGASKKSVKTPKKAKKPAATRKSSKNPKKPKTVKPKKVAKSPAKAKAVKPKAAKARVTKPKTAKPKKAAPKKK

binding: binds
Substance: FLAG-tagged H1.1 over-expressed in 293T cells (from UniProt Q02539 1-215)
